Source: the supplement of paper PMC7238544
Where a name gives a salt, the structure may show the parent alone. ± gives the standard deviation of the averaged measurements. The list shows a part of the results. The data scatter; read single values as rough.

What follows are molecules tested on hAMSC donor 2 (assay: Hoechst total cell count ratio vs vehicle control; higher = more cells (less toxicity)). Conditions: priming compound concentration 13 µM.

SMILES	Hoechst total cell count ratio
COC(=O)N1CCN(C(=O)Cc2ccc(Cl)c(Cl)c2)C(CN2CCCC2)C1 (configuration not stated)	1.36 ± 0.084
c1ccc(Cn2ccnc2)cc1 [Benzylimidazole]	1.02 ± 0.15
O=C1CN=C(c2ccccc2)c2cc([N+](=O)[O-])ccc2N1 [Nitrazepam]	1.02 ± 0.18
C[C@]12CC[C@H](O)CC1=CC[C@@H]1[C@@H]2CC[C@]2(C)C(=O)CC[C@@H]12 [Dehydroepiandrosterone]	0.944 ± 0.17
O=C1CC[C@@]2(O)[C@H]3Cc4ccc(O)c5c4[C@@]2(CCN3CC2CC2)[C@H]1O5 [Naltrexone hydrochloride]	1.45 ± 0.15
N=C(NCc1ccc(Cl)cc1)SCCCc1c[nH]cn1 [Clobenpropit]	1.34 ± 0.13
C=C(C)[C@@H]1[C@H]2OC(=O)[C@@H]1[C@]1(O)C[C@H]3O[C@]34C(=O)O[C@H]2[C@]14C.CC(C)(O)[C@@H]1[C@H]2OC(=O)[C@@H]1[C@]1(O)C[C@H]3O[C@]34C(=O)O[C@H]2[C@]14C [Picrotin - Picrotoxinin]	0.954 ± 0.033
C[C@]12Cc3c[nH]nc3C[C@@H]1CC[C@@H]1[C@@H]2CC[C@@]2(C)[C@H]1CC[C@]2(C)O [Stanozolol]	1.22 ± 0.2
C[N+]1(C)CCCC(OC(=O)C(O)(c2ccccc2)c2ccccc2)C1 (configuration not stated) [Mepenzolate bromide]	0.843 ± 0.091
CN[C@@H]1C[C@@H](c2ccc(Cl)c(Cl)c2)c2ccccc21 [Indatraline hydrochloride]	0.82 ± 0.055
C#CCN(C)[C@H](C)Cc1ccccc1 [Selegiline hydrochloride]	1.08 ± 0.055
C[C@]12CC[C@H]3[C@@H](CCC4=CC(=O)CC[C@@]43C)[C@@H]1CC[C@@H]2O [Testosterone]	0.886 ± 0.46
C[C@]12C/C(=C/O)C(=O)C[C@@H]1CC[C@@H]1[C@@H]2CC[C@@]2(C)[C@H]1CC[C@]2(C)O [Oxymetholone]	0.697 ± 0.27
FC(F)(F)c1cccc(N2CCNCC2)c1 [TFMPP hydrochloride]	1.1 ± 0.046
CN(C)C(=O)Oc1ccc[n+](C)c1 [Pyridostigmine bromide]	1.16 ± 0.16
Oc1cc(Cl)ccc1Oc1ccc(Cl)cc1Cl [Triclosan]	0.94 ± 0.3
CCOC(=O)c1cncn1[C@H](C)c1ccccc1 [Etomidate]	1.29 ± 0.2
CCOC(=O)C1(c2ccccc2)CCN(CCC(C#N)(c2ccccc2)c2ccccc2)CC1 [Diphenoxylate hydrochloride]	1.45 ± 0.31
CCCCC/C=C\C/C=C\C/C=C\C/C=C\CCCC(=O)Nc1ccc(O)cc1	0.834 ± 0.029
CCCCCCCCCOc1ccc2[nH]cc(CCN)c2c1 [5-Nonyloxytryptamine hydrochloride]	0.11 ± 0.014
COc1ccc(CCN)cc1OC [Homoveratrylamine]	1.19 ± 0.33
O=C(O)C(Cl)Cl [Dichloroacetic acid]	1.21 ± 0.12
C[C@]12CC[C@H](O)CC1=CC[C@@H]1[C@@H]2CC[C@@]2(C)[C@H]1CC[C@]2(C)O [Methylandrostenediol]	1.28 ± 0.14
C=C(C)CN1CC[C@@]23c4c5ccc(O)c4O[C@H]2c2[nH]c4ccccc4c2C[C@]3(O)C1C5 [SDM25N hydrochloride]	0.896 ± 0.14
c1ccc2c(c1)Nc1ccccc1S2 [Phenothiazine]	1.17 ± 0.097
CN1CC[C@@H](c2ccc(F)cc2)[C@H](COc2ccc3c(c2)OCO3)C1 [N-Methylparoxetine]	1.47 ± 0.063
CN1C(=O)CN=C(c2ccccc2)c2cc(Cl)ccc21 [Diazepam]	1.56 ± 0.26

What follows are molecules tested on hAMSC donor 1 (assay: transgenic luciferase activity (RLU/mg protein) fold change vs vehicle control (ratio); hAMSC are human adipose-derived mesenchymal stem cells given an EGFP-luciferase plasmid by lipofection; higher = more transgene expression). Conditions: priming compound concentration 0.2 µM.

SMILES	transgenic luciferase activity
c1ccc(Cn2ccnc2)cc1 [Benzylimidazole]	0.742 ± 0.13
O=C1CN=C(c2ccccc2)c2cc([N+](=O)[O-])ccc2N1 [Nitrazepam]	0.583 ± 0.26
C[C@]12CC[C@H](O)CC1=CC[C@@H]1[C@@H]2CC[C@]2(C)C(=O)CC[C@@H]12 [Dehydroepiandrosterone]	0.768 ± 0.15
N=C(NCc1ccc(Cl)cc1)SCCCc1c[nH]cn1 [Clobenpropit]	0.947 ± 0.3
C=C(C)[C@@H]1[C@H]2OC(=O)[C@@H]1[C@]1(O)C[C@H]3O[C@]34C(=O)O[C@H]2[C@]14C.CC(C)(O)[C@@H]1[C@H]2OC(=O)[C@@H]1[C@]1(O)C[C@H]3O[C@]34C(=O)O[C@H]2[C@]14C [Picrotin - Picrotoxinin]	0.704 ± 0.23
C[N+]1(C)CCCC(OC(=O)C(O)(c2ccccc2)c2ccccc2)C1 (configuration not stated) [Mepenzolate bromide]	0.884 ± 0.35
CN[C@@H]1C[C@@H](c2ccc(Cl)c(Cl)c2)c2ccccc21 [Indatraline hydrochloride]	0.935 ± 0.2
C#CCN(C)[C@H](C)Cc1ccccc1 [Selegiline hydrochloride]	0.91 ± 0.37
C[C@]12CC[C@H]3[C@@H](CCC4=CC(=O)CC[C@@]43C)[C@@H]1CC[C@@H]2O [Testosterone]	0.625 ± 0.24
C[C@]12C/C(=C/O)C(=O)C[C@@H]1CC[C@@H]1[C@@H]2CC[C@@]2(C)[C@H]1CC[C@]2(C)O [Oxymetholone]	0.935 ± 0.3
FC(F)(F)c1cccc(N2CCNCC2)c1 [TFMPP hydrochloride]	1.2 ± 0.52
Oc1cc(Cl)ccc1Oc1ccc(Cl)cc1Cl [Triclosan]	0.394 ± 0.21
CCOC(=O)c1cncn1[C@H](C)c1ccccc1 [Etomidate]	0.471 ± 0.08
CCCCC/C=C\C/C=C\C/C=C\C/C=C\CCCC(=O)Nc1ccc(O)cc1	0.507 ± 0.1
CCCCCCCCCOc1ccc2[nH]cc(CCN)c2c1 [5-Nonyloxytryptamine hydrochloride]	0.7 ± 0.13
COc1ccc(CCN)cc1OC [Homoveratrylamine]	0.707 ± 0.36
C[C@]12CC[C@H](O)CC1=CC[C@@H]1[C@@H]2CC[C@@]2(C)[C@H]1CC[C@]2(C)O [Methylandrostenediol]	0.675 ± 0.16
C=C(C)CN1CC[C@@]23c4c5ccc(O)c4O[C@H]2c2[nH]c4ccccc4c2C[C@]3(O)C1C5 [SDM25N hydrochloride]	0.474 ± 0.11
c1ccc2c(c1)Nc1ccccc1S2 [Phenothiazine]	0.713 ± 0.39
CN1C(=O)CN=C(c2ccccc2)c2cc(Cl)ccc21 [Diazepam]	0.414 ± 0.096

In another format: entries from further up
O=C1CN=C(c2ccccc2)c2cc([N+](=O)[O-])ccc2N1 [Nitrazepam]
  transgenic luciferase activity: 0.583 ± 0.26
CCCCCCCCCOc1ccc2[nH]cc(CCN)c2c1 [5-Nonyloxytryptamine hydrochloride]
  transgenic luciferase activity: 0.7 ± 0.13
C[C@]12CC[C@H](O)CC1=CC[C@@H]1[C@@H]2CC[C@@]2(C)[C@H]1CC[C@]2(C)O [Methylandrostenediol]
  transgenic luciferase activity: 0.675 ± 0.16
